Record: PubChem BioAssay AID1159590 (NIAID, 2016)
The whole screen tested 756 reagents; below is a random part of them. 128 of all reagents (17%) count as active. 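Calls are two-sided: both reduced and increased p65 nuclear entry count as active.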 Entries without a mark were called inactive. Reagents against one gene are numbered here. Not given: the amount of reagent.

- Screen: 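Finding genes that mouse macrophage TLR2 agonist signalling relies on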
- Cells: mouse RAW264.7 macrophage reporter cells expressing GFP-p65 and a Tnf promoter-mCherry
- Reagent: single siRNA against mouse genes
- Time to read-out: 48 to 72 hours after siRNA transfection, then 40 minutes of ligand
- Conditions: Pam3CSK4 (TLR2/1 agonist) for 40 minutes before fixation; dose not given
- Measurement: 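p65 nuclear translocation measured by high-content imaging, shown for each siRNA as a robust z-score averaged across replicates, relative to negative controls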
- Reading the numbers: p65 nuclear entry z-score: higher = more p65 moved into nuclei than in negative-control wells
- Call rule: In these data the active calls have p65 nuclear entry z-score, replicate mean at about -1.5 or lower, or at about 1.5 or higher
- Meaning of the calls: active = strong change, up or down; inactive = little change

p65 nuclear entry z-score, replicate mean, by gene and reagent
Tlr7 (GeneID 170743): #1 -1.04; #2 -1.79 (active); #3 2 (active); #4 -0.417; #5 -1.04; #6 1.6 (active)
Btk (GeneID 12229): #1 -0.182; #2 -0.232; #3 -1.02; #4 -0.51; #5 3.77 (active); #6 1.6 (active)
Crebbp (GeneID 12914): #1 -0.481; #2 -1.28; #3 -0.714; #4 -0.554; #5 4.11 (active); #6 -0.0876
Lbp (GeneID 16803): #1 -0.526; #2 -1.45; #3 0.929; #4 -0.609; #5 1.68 (active); #6 -0.557
Map2k1 (GeneID 26395): #1 0.0516; #2 -0.626; #3 -0.765; #4 -0.0843; #5 0.356; #6 -1.11
Nfkbib (GeneID 18036): #1 -1.18; #2 -0.314; #3 0.531; #4 0.253; #5 12.3 (active); #6 -0.55
Tlr2 (GeneID 24088): #1 -3.3 (active); #2 -2.24 (active); #3 -1.1; #4 -1.88 (active); #5 2.09 (active); #6 -1.69 (active)
Relb (GeneID 19698): #1 -0.68; #2 0.0281; #3 -2.33 (active); #4 -0.364; #5 1.47; #6 -0.685
Tab1 (GeneID 66513): #1 -0.348; #2 -0.496; #3 -0.258; #4 -0.527; #5 -0.902; #6 0.0371
Egr1 (GeneID 13653): #1 -1; #2 -0.183; #3 -0.536; #4 -0.588; #5 3.46 (active); #6 -0.831
Traf3 (GeneID 22031): #1 0.178; #2 -0.2; #3 -0.297; #4 0.533; #5 -0.403; #6 0.0584
Map3k1 (GeneID 26401): #1 1.33; #2 -0.42; #3 -0.543; #4 -0.792; #5 0.711; #6 0.279
Mapk9 (GeneID 26420): #1 0.576; #2 0.753; #3 0.332; #4 0.0097; #5 -1.12; #6 -1.07

A few values from the entries so far:
Value of Traf3 (GeneID 22031) #5 in “p65 nuclear entry z-score, replicate mean”: -0.403
Crebbp (GeneID 12914) #5, p65 nuclear entry z-score, replicate mean → 4.11 (active)
Result for Egr1 (GeneID 13653) #2 in “p65 nuclear entry z-score, replicate mean”: -0.183
Traf3 (GeneID 22031) #3, p65 nuclear entry z-score, replicate mean → -0.297
Entry for Mapk9 (GeneID 26420) #3 in “p65 nuclear entry z-score, replicate mean”: 0.332
Tab1 (GeneID 66513) #3, p65 nuclear entry z-score, replicate mean: -0.258
